# Earlier results in patent US20260015669A1, “COMPOSITIONS AND METHODS FOR DETECTING AND TREATING TUMORS AND/OR CANCERS ASSOCIATED WITH BRAF AND/OR MAP2K1 VARIANTS” (North Carolina State University, priority 2022, published 2026).
# At least one structure is not confirmed: it was looked up by name or label, or the drawing left a doubt.
# Test system: ΔNVTAP mutants
# Details: human cancer cell lines; RAF dimer inhibitors target the αC-in/DFG-out conformation
smiles,measurement,value
CC(=O)Nc1cccc(-n2c(=O)n(C3CC3)c(=O)c3c(Nc4ccc(I)cc4F)n(C)c(=O)c(C)c32)c1 [trametinib],response of mutants with exon 12 in-frame deletions to pan-RAF dimer inhibitors and allosteric MEK inhibitors,susceptible
